Measured values published in PubChem BioAssay (Tox21).
Several values for one entry are separate records, joined by “and”; a condition that tells them apart may be missing. Equal entries are not always repeated. This list was built around the results that the source calls inconclusive (neither active nor inactive); the mix of calls is not that of the screen. Potencies of inconclusive entries are doubtful fits and often do not repeat. Activity calls are given as the source filed them. The call rests on the fitted dose curve; in most records, active means well fitted inhibition curve with a large enough effect in the repeat runs; inconclusive means weak or mixed curves; inactive means no such curve, though single readings can be large or run the other way.

The chains behind the UniProt entries cited, without tags or fusion partners.
UniProt P11712, whole entry, looked up: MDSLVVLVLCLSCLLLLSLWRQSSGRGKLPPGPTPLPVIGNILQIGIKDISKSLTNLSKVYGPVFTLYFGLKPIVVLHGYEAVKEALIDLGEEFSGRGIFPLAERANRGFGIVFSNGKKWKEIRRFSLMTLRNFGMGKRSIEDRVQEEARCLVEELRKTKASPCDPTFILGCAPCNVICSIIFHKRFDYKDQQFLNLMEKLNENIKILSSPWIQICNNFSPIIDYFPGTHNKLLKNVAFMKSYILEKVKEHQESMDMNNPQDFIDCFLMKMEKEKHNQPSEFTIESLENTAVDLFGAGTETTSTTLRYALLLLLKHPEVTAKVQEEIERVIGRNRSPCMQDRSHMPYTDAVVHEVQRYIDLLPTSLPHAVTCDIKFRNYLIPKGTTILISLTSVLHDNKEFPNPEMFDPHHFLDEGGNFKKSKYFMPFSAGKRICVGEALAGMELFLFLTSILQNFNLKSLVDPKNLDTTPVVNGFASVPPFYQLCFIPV

These molecules were tested against Cytochrome P450 2C9 (Homo sapiens) (UniProt P11712) (assay: Cytochrome P450 Family 2 Subfamily C Member 9 (CYP2C9) small molecule antagonists: luciferase reporter qHTS assay (AID 1671198; further: nearly all actives have a fitted effect of over 50% in size)). Conditions: P450-Glo CYP2C9 enzyme assay, luciferin luminescence; series mostly up to 115 µM; activity change, negative = inhibition: at the top concentration.
Procedure, shortened: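 CYP2C9 activity was measured with a P450-Glo proluciferin substrate. Enzyme–substrate mix was held with compound for 10 min at room temperature, then NADPH regeneration solution was added for 1 h at 37C. Luciferin product was read as luminescence.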
On the % scale 0 is the no-effect control and ±100 the full control effect; potency means the concentration at half of the fitted maximal effect.

SMILES | activity change, negative = inhibition | Potency
CC(=O)CCC(C)=O | inactive: 1.26% | 
N#CN | inactive: -28% [at 300 µM] | 
CN(C)[C@@H]1C(=O)C(C(N)=O)=C(O)[C@@]2(O)C(=O)C3=C(O)c4c(O)cccc4[C@@](C)(O)[C@H]3[C@H](O)[C@@H]12 |  | active: 39.6 µM [middle of 4 runs]
O=[Se]=O |  | inconclusive: 35.3 µM [inhibitor]
CSc1nc(NC(C)C)nc(NC(C)C)n1 |  | inconclusive: 70.7 µM [inhibitor, partial curve] and inconclusive: 79.6 µM [inhibitor, partial curve]
O=C1OC(c2ccc(O)c(S(=O)(=O)O)c2)(c2ccc(O)c(S(=O)(=O)O)c2)c2c(Br)c(Br)c(Br)c(Br)c21 |  | inconclusive: 43.6 µM [inhibitor]
Cc1cc(C)cc(C)c1 |  | inactive
C=CCC1([C@H](C)CCC)C(=O)NC(=O)NC1=O |  | inconclusive: 49.8 µM [inhibitor, partial curve]
CCCCN(CCCC)N=O |  | inconclusive: 60.7 µM [inhibitor, partial curve, poor fit] and inactive
Nc1cc(Cl)cc(Cl)c1 |  | inactive and inconclusive: 63.3 µM [inhibitor, partial curve, poor fit]
Nc1ccc(N)cc1 |  | inconclusive: 19.5 µM [inhibitor, partial curve]
O=C(O)C1(c2ccc3c(c2)OC[C@H](Cc2ccc(-c4ccccc4)cc2)[C@H]3O)CCCC1 |  | active: 71 µM
O=C1OC(=O)C2C1C1(Cl)C(Cl)=C(Cl)C2(Cl)C1(Cl)Cl (stereo not drawn) | inactive: -9.97% | 
CCc1cnc(C2=NC(C)(C(C)C)C(=O)N2)c(C(=O)O)c1 (stereo not drawn) |  | inactive and inconclusive: 79.6 µM [inhibitor, partial curve, poor fit]
Oc1ccccc1-c1ccccc1 |  | inconclusive: 27.5 µM [inhibitor, partial curve, poor fit]
C[N+](C)=CCl | inactive: -9.59% | 
C[C@]12CCC(=O)C=C1CC[C@@H]1[C@@H]2CC[C@]2(C)C(=O)CC[C@@H]12 |  | inconclusive: 39.3 µM [inhibitor, partial curve] and inconclusive: 79.6 µM [inhibitor] and inconclusive: 38.9 µM [inhibitor, single point]
O=C(NC(=O)c1c(F)cccc1F)Nc1cc(Cl)c(Oc2ncc(C(F)(F)F)cc2Cl)c(Cl)c1 |  | inconclusive: 34.1 µM [inhibitor, partial curve]
COc1ccc(N)cc1N |  | active: 41.2 µM and active: 24.2 µM

SMILES | activity change, negative = inhibition | Potency
CC[C@H]1C[C@H]2[C@@H]3CCC4=CC(=O)CC[C@@H]4[C@H]3CC[C@]2(C)[C@H]1O |  | inconclusive: 27.5 µM [inhibitor, partial curve]
Oc1cc(Cl)c(Cl)c(Cl)c1Cl |  | inconclusive: 87.3 µM [inhibitor, single point]
CCOC(=O)CBr |  | inconclusive: 35.7 µM [inhibitor, partial curve, poor fit]
O=C1C(=O)c2cccc3cccc1c23 |  | inconclusive: 63.2 µM [inhibitor]
C=CC(=O)OC(C)(C)C |  | inconclusive: 34.3 µM [inhibitor, partial curve]
CCOC(=O)OC1=C(c2cc(C)ccc2C)C(=O)NC12CCC(OC)CC2 (stereo not drawn) |  | inconclusive: 50.2 µM [inhibitor, partial curve]
NN=C(N)N |  | inconclusive: 50.2 µM [inhibitor, partial curve, poor fit]
CCCCCCCCCCCCCN1CC(C)OC(C)C1 (stereo not drawn) |  | inconclusive: 56.4 µM [inhibitor, partial curve]
Cc1ncsc1CCCl | inactive: -5.89% [at 53 µM] | 
COc1ccc(C=O)cc1OC |  | inconclusive: 57 µM [inhibitor, partial curve]
C=C1C[C@@H]2[C@H](CC[C@]3(C)C(=O)CC[C@@H]23)[C@@]2(C)C=CC(=O)C=C12 |  | inconclusive: 34.7 µM [inhibitor, partial curve, poor fit]
COC(=O)C(C)N(C(=O)Cc1ccccc1)c1c(C)cccc1C (stereo not drawn) |  | active: 22.4 µM
C=CC(=O)NCNC(=O)C=C |  | inconclusive: 44.8 µM [inhibitor, partial curve, poor fit]
Nc1nc(N)nc(Cl)n1 | inactive: -15.4% | 
CC(C)OS(C)(=O)=O | inactive: 3.17% | 
CC1=C2[C@H]3OC(=O)[C@@H](C)[C@@H]3CC[C@@]2(C)C=CC1=O |  | inconclusive: 30.9 µM [inhibitor, partial curve, poor fit]
C=CCC1(C(C)CC)C(=O)NC(=O)NC1=O (stereo not drawn) |  | inconclusive: 24.5 µM [inhibitor, partial curve, poor fit]
Cc1ccccc1C(=O)Nc1cccc(OC(C)C)c1 |  | active: 22.4 µM
CCC1(c2ccc(N)cc2)CCC(=O)NC1=O (stereo not drawn) |  | inconclusive: 71 µM [inhibitor]

Whole records from above.
`CCOC(=O)OC1=C(c2cc(C)ccc2C)C(=O)NC12CCC(OC)CC2` (stereo not drawn) as listed: Potency: inconclusive: 50.2 µM [inhibitor, partial curve]
`O=C1C(=O)c2cccc3cccc1c23` as listed: Potency: inconclusive: 63.2 µM [inhibitor]
`COC(=O)C(C)N(C(=O)Cc1ccccc1)c1c(C)cccc1C` (stereo not drawn) as listed: Potency: active: 22.4 µM
